Measurements published in US20160297875A1 (CASE WESTERN RESERVE UNIVERSITY, published 2016).
These are yes or no findings as the source states them, for the method shown. Some results given as binding are weak or reduced against the parent protein; the word gives no strength.

By UniProt entry, the sequences of proteins in these tests, tags left out. Residues count along the entry.
UniProt P16671, residues 30-439: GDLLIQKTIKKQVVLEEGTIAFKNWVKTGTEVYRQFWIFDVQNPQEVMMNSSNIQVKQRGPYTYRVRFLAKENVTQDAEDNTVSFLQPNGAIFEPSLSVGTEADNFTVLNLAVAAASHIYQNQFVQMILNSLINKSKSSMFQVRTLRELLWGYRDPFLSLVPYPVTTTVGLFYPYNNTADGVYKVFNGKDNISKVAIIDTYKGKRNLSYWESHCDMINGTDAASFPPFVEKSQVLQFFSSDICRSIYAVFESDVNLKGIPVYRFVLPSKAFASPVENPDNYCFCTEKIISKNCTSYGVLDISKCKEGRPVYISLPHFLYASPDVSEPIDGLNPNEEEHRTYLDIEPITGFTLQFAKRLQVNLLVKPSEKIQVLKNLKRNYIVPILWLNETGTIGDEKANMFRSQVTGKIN

Assays:
purified soluble CD36 [1] = target: purified soluble CD36 (UniProt P16671); assay: plate binding assay
[2] = target: GST-CLESH (CD36 CLESH domain containing peptide, aa93-120, as GST fusion protein) (human); assay: plate binding assay, MRP14 1-5 µg/ml on sCD36, GST-CLESH or GST-control
[3] = target: GST-CLESH (CD36 CLESH domain containing peptide, aa93-120, as GST fusion protein) (human); assay: solid phase plate binding assay with recombinant CD36 peptides (GST fusions)
purified soluble CD36 [4] = target: purified soluble CD36 (UniProt P16671); assay: plate binding assay, CD36 coated on wells, MRP-14 0-2.5 µg/ml, detection with anti-human MRP-14 antibody at 450 nm

Measured: binding

B1: purified, recombinant human MRP-14 (ligand, UniProt P06702 1-114, looked up)
chain: MTCKMSQLERNIETIINTFHQYSVKLGHPDTLNQGEFKELVRKDLQNFLKKENKNEKVIEHIMEDLDTNADKQLSFEEFIMLMARLTWASHEKMHEGDEGPGHHHKPGLGEGTP
notes: Bought protein; also called purified MRP-14; purified human MRP-14 protein
binds: all assays above
